## Library screen at single concentrations

Protein sequences, listed by entry. Tags and fused reporters are not part of them. Residues count along the entry.
UniProt A4I591, 1-473: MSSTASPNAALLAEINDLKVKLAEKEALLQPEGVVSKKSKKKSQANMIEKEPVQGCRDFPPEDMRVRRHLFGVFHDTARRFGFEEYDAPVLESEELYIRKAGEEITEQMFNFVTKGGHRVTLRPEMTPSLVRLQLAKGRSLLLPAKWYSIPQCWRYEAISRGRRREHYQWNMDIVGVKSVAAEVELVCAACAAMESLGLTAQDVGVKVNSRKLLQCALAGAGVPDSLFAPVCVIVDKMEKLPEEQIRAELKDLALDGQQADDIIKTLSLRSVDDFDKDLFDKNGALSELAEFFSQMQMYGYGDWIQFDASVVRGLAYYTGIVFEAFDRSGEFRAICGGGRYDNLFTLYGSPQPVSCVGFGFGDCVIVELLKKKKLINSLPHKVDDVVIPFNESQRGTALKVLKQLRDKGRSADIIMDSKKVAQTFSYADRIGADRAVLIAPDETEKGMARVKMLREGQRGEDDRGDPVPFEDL
UniProt P9WPC5, whole entry: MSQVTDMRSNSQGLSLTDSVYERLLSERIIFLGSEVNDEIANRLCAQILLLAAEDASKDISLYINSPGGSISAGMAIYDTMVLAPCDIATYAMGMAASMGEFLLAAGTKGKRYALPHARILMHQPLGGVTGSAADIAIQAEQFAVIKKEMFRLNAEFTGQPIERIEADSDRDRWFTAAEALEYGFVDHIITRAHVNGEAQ
UniProt P9WPC3, whole entry partner: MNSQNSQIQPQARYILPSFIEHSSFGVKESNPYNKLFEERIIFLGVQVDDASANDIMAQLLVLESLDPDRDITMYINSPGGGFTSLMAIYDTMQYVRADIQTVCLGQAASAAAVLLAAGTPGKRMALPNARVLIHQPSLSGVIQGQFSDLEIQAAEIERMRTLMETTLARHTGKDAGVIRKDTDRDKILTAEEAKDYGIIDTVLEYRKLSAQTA
UniProt Q4DA54, 1-478: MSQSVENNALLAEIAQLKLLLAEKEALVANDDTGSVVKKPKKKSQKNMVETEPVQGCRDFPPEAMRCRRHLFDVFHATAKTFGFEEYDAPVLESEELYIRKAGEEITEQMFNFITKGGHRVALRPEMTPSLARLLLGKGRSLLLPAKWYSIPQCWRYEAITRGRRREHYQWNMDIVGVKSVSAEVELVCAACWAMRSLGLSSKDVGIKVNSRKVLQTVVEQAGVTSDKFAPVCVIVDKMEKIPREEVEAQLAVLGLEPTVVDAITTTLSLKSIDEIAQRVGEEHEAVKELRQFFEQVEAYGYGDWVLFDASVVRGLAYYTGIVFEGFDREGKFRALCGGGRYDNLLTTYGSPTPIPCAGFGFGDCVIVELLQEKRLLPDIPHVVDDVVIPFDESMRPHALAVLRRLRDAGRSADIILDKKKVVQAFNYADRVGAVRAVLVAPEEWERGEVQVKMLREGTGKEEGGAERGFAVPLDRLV

The values are deposited in ChEMBL (CHEMBL3988442, “University of Dundee, Small-Polar-MMV Screening Library” (2021)).

Toxoplasma: 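Assay of Toxoplasma gondii numbers, read through their beta-galactosidase reporter with a colour substrate. Tested at 10 µM. The record gives no direction; the compounds picked for IC50 retests had high values, so higher reads as fewer parasites. About 67,000 compounds were tested under these conditions; 0.38% (about 260) showed 50% or more at least once.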
T. brucei: 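Whole-parasite assay of Trypanosoma brucei over 72 hours; the read-out is not stated. Tested at 30 µM. Direction is inferred from retests: higher values go with stronger inhibition. Values scatter widely below zero; nearly all retest evidence comes from the higher of the two concentrations used. Of about 64,000 compounds tested this way, about 940 (1.5%) reached 50% or more in at least one test.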
LiHisRS: 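Histidine-tRNA ligase, Leishmania infantum (UniProt A4I591). Enzyme assay of histidyl-tRNA synthetase; the read-out is not stated. Tested at 30 µM. Direction is inferred from retests: higher values go with stronger inhibition. The assay is labelled LdHisRS but filed under L. infantum. Size under these conditions: about 69,000 compounds, about 410 of them at 50% or above in at least one test.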
ClpP1P2: 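Protease assay of ClpP1P2, read by the AMC dye that it sets free. Target: ClpP1P2, Mycobacterium tuberculosis (UniProt P9WPC5 and UniProt P9WPC3). Concentration: 50 µM. Higher reads as stronger inhibition, judged from the few compounds that gave an IC50. Most other retested compounds had strongly negative values. Size under these conditions: about 69,000 compounds, about 10 of them at 50% or above in at least one test.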
TcHisRS: 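Enzyme assay of histidyl-tRNA synthetase; the read-out is not stated. Target: Histidine-tRNA ligase, Trypanosoma cruzi CL Brener (UniProt Q4DA54). Compounds at 30 µM. Direction is inferred from retests: higher values go with stronger inhibition. Of about 69,000 compounds tested this way, about 31 (0.045%) reached 50% or more in at least one test.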

Results are given as percent effect.
How 0% and 100% were set is not recorded. Most values in the screen are low, and negative values occur.
This is an unselected part of the compounds tested.
A dash means the value is not listed here; it may have been measured.

For CCC1CN(C(=O)COc2ccc(C(=O)NC3CC3)cc2)CCO1 (configuration not stated) the result was Toxoplasma: 9.359%; T. brucei: -46.23%; LiHisRS: 10.34%; ClpP1P2: 7.471%; TcHisRS: 4.712%.
For CNC(=O)C1Cn2ccnc2C2(CCN(CCF)CC2)O1 (configuration not stated) the result was Toxoplasma: -1.774%; T. brucei: -30.87%; LiHisRS: 6.796%; ClpP1P2: -17.56%; TcHisRS: 2.174%.
For O=C(NCCc1ccccn1)c1n[nH]c2c1CCC2 the result was Toxoplasma: -2.356%; T. brucei: 3.666%; LiHisRS: 5.495%; ClpP1P2: -5.091%; TcHisRS: -1.031%.
For O=C1CCCN1Cc1ncn2c1CN(S(=O)(=O)c1cccs1)CCC2 the result was Toxoplasma: 13.41%; T. brucei: -0.7317%; LiHisRS: 31.43%; ClpP1P2: -12.95%; TcHisRS: 6.863%.
For CN(C)CCN(Cc1ccco1)C(=O)Cc1cn2ccsc2n1 the result was Toxoplasma: -2.434%; T. brucei: 11.74%; LiHisRS: 5.759%; ClpP1P2: -3.108%; TcHisRS: 5.882%.
For COCC(NC(=O)c1cnc(-c2ccncc2)nc1)c1ccnn1C (configuration not stated) the result was Toxoplasma: -6.979%; T. brucei: -19.34%; LiHisRS: 17.07%; ClpP1P2: 2.171%; TcHisRS: 7.212%.
For COCCNc1ncnc2c1CCN(C(=O)CC1CCC(=O)N1)CC2 (configuration not stated) the result was Toxoplasma: 7.806%; T. brucei: -53.06%; LiHisRS: 3.54%; ClpP1P2: -11.07%; TcHisRS: 2.679%.
For CCOC(C)C(=O)NCCNS(C)(=O)=O (configuration not stated) the result was Toxoplasma: 2.883%; T. brucei: -15.29%; LiHisRS: 23.08%; ClpP1P2: -1.399%; TcHisRS: 8.911%.
For CNC(=O)c1ccc(OC)c(NCc2noc(-c3ccsc3)n2)c1 the result was Toxoplasma: -7.85%; T. brucei: -49.23%; LiHisRS: 12.9%; ClpP1P2: -8.641%; TcHisRS: 2.062%.
For c1ccc(-c2ncc(CNC3CCc4ncnn4C3)cn2)cc1 (configuration not stated) the result was Toxoplasma: -5.906%; T. brucei: 25.29%; LiHisRS: 10.81%; ClpP1P2: 0.009009%; TcHisRS: 0.3759%.
For O=C(Nc1nccs1)NC1CCN(Cc2ccccc2)C1 (configuration not stated) the result was Toxoplasma: -30.15%; T. brucei: -14.85%; LiHisRS: -6.383%; ClpP1P2: 20.49%; TcHisRS: -21.37%.
For O=C(c1ccco1)N1CCC2(CC1)C(=O)Nc1ccccc12 the result was Toxoplasma: 7.669%; T. brucei: -25.44%; LiHisRS: 9.211%; ClpP1P2: 4.568%; TcHisRS: 2.174%.
For CN(CC1Cc2ccccc2CN1C)c1nc(N)nc2c1CCNCC2 (configuration not stated) the result was Toxoplasma: 24.26%; T. brucei: 7.959%; LiHisRS: -31.58%; ClpP1P2: -5.487%; TcHisRS: 9.497%.
For CCn1c(C)cc(C(=O)N2CCc3nnc(N)cc3C2)c1C the result was Toxoplasma: 5.949%; T. brucei: 11.34%; LiHisRS: 37.39%; ClpP1P2: -10.24%; TcHisRS: 14.65%.
For c1ncn(CC2CCCN(Cc3nc(-c4ccoc4)no3)C2)n1 (configuration not stated) the result was Toxoplasma: -7.308%; LiHisRS: 15.25%; ClpP1P2: -12.18%; TcHisRS: 6.286%.
For CN(CCCC1CCCC1)C(=O)c1cc(CN2CCC(O)CC2)on1 the result was Toxoplasma: 4.092%; T. brucei: -46.84%; LiHisRS: 0%; ClpP1P2: 2.727%; TcHisRS: 2.618%.
For CCSCc1cccc(NCc2cccnc2)c1 the result was Toxoplasma: 6.744%; T. brucei: -58.23%; LiHisRS: 3.333%; ClpP1P2: -9.899%; TcHisRS: -0.8696%.
For O=C(COc1coc(CN2CCCC2)cc1=O)Nc1cc(Cl)ccc1Cl the result was Toxoplasma: -25.51%; T. brucei: -33.61%; LiHisRS: 26.32%; ClpP1P2: -8.337%; TcHisRS: 2.924%.
For COCC(=O)N1CCN(C(=O)C2CCCCC2)[C@@H](C(=O)OC)C1 the result was Toxoplasma: -2.702%; T. brucei: -53.04%; LiHisRS: 5.405%; ClpP1P2: 1.707%; TcHisRS: 3.483%.
For Cc1c(C(=O)N(C)C)cccc1N(C)S(C)(=O)=O the result was Toxoplasma: 1.273%; T. brucei: -10.83%; LiHisRS: 5.882%; ClpP1P2: -10.51%; TcHisRS: 3.015%.
For CC(C)OCCCNS(=O)(=O)c1ccc2c(c1)NC(=O)C(C)O2 (configuration not stated) the result was Toxoplasma: 2.817%; T. brucei: -2.311%; LiHisRS: 9.929%; ClpP1P2: 11.37%; TcHisRS: 4.651%.
For CCc1cnc(C)nc1N(C)CCCc1cnn(C)c1 the result was Toxoplasma: 2.082%; T. brucei: -13.74%; LiHisRS: 14.29%; ClpP1P2: -5.481%; TcHisRS: 4.95%.
For CCOC1CC2(CCN(C(=O)COC)CC2)c2cc(F)ccc21 (configuration not stated) the result was Toxoplasma: 0.3723%; T. brucei: -73.2%; LiHisRS: 1.709%; ClpP1P2: -4.204%; TcHisRS: 4.908%.
For Cc1ccc(CN2CCn3cc(CNC(=O)c4cnn(C)c4)nc3C2)s1.O=C(O)C(F)(F)F the result was Toxoplasma: 28.34%; T. brucei: -34.09%.
For O=C(NCC1CC1)C1CN(Cc2ccncc2)Cc2ccnn2C1.O=C(O)C(F)(F)F.O=C(O)C(F)(F)F.O=C(O)C(F)(F)F (configuration not stated) the result was Toxoplasma: 5.432%; T. brucei: -12.03%.
For CC(C)OCc1ncn2c1CN(Cc1nccs1)CCC2 the result was LiHisRS: 11.76%; ClpP1P2: 5.244%; TcHisRS: 0%.
For Cn1c(CO)cnc1SC(C(N)=O)c1ccccc1 (configuration not stated) the result was Toxoplasma: -8.563%; LiHisRS: 10.26%; ClpP1P2: 0.5981%; TcHisRS: 5.747%.
For CN(C)c1cc(CNC(=O)c2ccc(F)cc2)ccn1 the result was Toxoplasma: -38.21%; T. brucei: -2.841%; LiHisRS: 12.5%; ClpP1P2: -29.2%; TcHisRS: 5.764%.
For CC(C)c1cc(N2CCC(N)CC2)n2nccc2n1 the result was Toxoplasma: 4.473%; T. brucei: 38.85%; LiHisRS: 22.86%; ClpP1P2: -3.982%; TcHisRS: -0.8264%.

The last 4 entries again:

| structure | Toxoplasma | T. brucei | LiHisRS | ClpP1P2 | TcHisRS |
|---|---|---|---|---|---|
| `CC(C)OCc1ncn2c1CN(Cc1nccs1)CCC2` | - | - | 11.76 | 5.244 | 0 |
| `Cn1c(CO)cnc1SC(C(N)=O)c1ccccc1` (configuration not stated) | -8.563 | - | 10.26 | 0.5981 | 5.747 |
| `CN(C)c1cc(CNC(=O)c2ccc(F)cc2)ccn1` | -38.21 | -2.841 | 12.5 | -29.2 | 5.764 |
| `CC(C)c1cc(N2CCC(N)CC2)n2nccc2n1` | 4.473 | 38.85 | 22.86 | -3.982 | -0.8264 |